Experimental data published in doi:10.1101/2020.12.11.420943.
These are yes or no findings as the source states them, for the method shown. Some entries that bind do so weakly or less than the wild type.

Chains of the proteins cited; added tags and fusions are not shown. Residues count along the entry.
UniProt Q00517, residues 44-237: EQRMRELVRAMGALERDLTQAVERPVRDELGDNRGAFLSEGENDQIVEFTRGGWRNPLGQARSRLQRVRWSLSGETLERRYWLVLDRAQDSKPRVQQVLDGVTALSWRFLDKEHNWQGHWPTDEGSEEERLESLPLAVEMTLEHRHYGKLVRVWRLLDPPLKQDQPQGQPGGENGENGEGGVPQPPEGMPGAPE
UniProt Q00516, residues 38-129: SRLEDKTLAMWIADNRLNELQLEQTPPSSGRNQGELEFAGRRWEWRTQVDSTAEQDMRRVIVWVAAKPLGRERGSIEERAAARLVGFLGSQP

Target: XcpJp, soluble periplasmic domain of the minor pseudopilin XcpJ (Pseudomonas aeruginosa) (UniProt Q00517)
Test: cross-linking

“XcpIp, soluble periplasmic domain of the minor pseudopilin XcpI (from UniProt Q00516 38-129) (domain or fragment)” was tested, and the binding was “binds”.
